Laboratory results as given in paper PMC4005679, “In vitro assembly and activity of an archaeal CRISPR-Cas type I-A Cascade interference complex” (Nucleic Acids Research, 2014).
These are yes or no findings as the source states them, for the method shown. In cells and extracts the contact can be indirect. Here binding means that the protein was enriched with, or labelled near, the bait; the list need not be complete. Sequences can lack the tags named with a protein.

B1: Cas7 (T. tenax cell extract) (protein, UniProt G4RJZ1 1-329)
chain: MRVAPPYVRAAGRFEAQLSVLTGAGNMGNYNMHAVAKVIHGGKAYEVPVLTGNALKHWHSVYLAEVYQDLGGTQLNEFCKKGVGLRGKNMSGEDASSEAEAIKDLCNDLHGFLLPDKQIKRDSLVRVSFAVPVLEEKNLEAASKFAVVHNRVDPFKRTQQVKSKEEQEGTEMMVFKQEYSSAVYGFAAAMDLGLSGVPLYQEGESGVDDRERALRIKSALVALLRLFNGVGSKQARALPIARLRELVIAISDSPIPNLVHGAYPDYVARSAELLTAYLKAVGKKGVVLCYGVDCPQSNNVLECKKADTLDDLFQEALRRALPGGQPARR
B2: Cas5a (T. tenax cell extract) (protein, UniProt G4RJZ2 1-226)
chain: MHYYLIEARAPLYSVKVVDVYQVASAYPLPTPHAVVGALGAAMAHAGMCRGLQCMKEAEGLVVAARPAAVGELAKFPAVLWRTRGVLEDKSLPAGLEDYAGARDAMVREYVYAHAVKILLVTRKRVPQHVIRLMARLGDSESYVSVVDVLEGKPRECGGLVNVAVRAAKARRGSYTLYRALDERGNRELFAYPVVEEGGVYRRGGVEVGSKVLCLGEAVFPEGDGW
B3: Cas8a2 (T. tenax cell extract) (protein, UniProt G4RJZ5 1-361)
chain: MTQCPQEMITPGHGIIADALIMHGLIKILHIEGKMEGWAERRGERFVVCAERPDLNWIDQWEPMELLEIAAEFKAKGKDRASEEEEQRPYFGLVHDLSRSTVDPGNFSSWISDVREALYALKADFDLSEEHKEKRGEGRARSKKRGYYTLYLPLSGVYGKYVVENYGIRQSQYAVCATCFALSTLGYIYGTVKARVERRSSSGGGHDVFNLTFIPRERTSLRSLMALQRMAGLVEMRPGDLNELGAVVYMLSVGETIYAVREGVDILVWVTQRAGNFQRTVGVNIFRGDRLLEAIAEIKYRAPSWPKIARQLGSSLNVLGEYLAFGGDVYHVIRSVMADLGRKGGKLAGLEGLAEALKKIG

Biological target: T1, Csa5 with a C-terminal 6× His-tag (Thermoproteus tenax) (UniProt G4RJZ0)
T1 sequence: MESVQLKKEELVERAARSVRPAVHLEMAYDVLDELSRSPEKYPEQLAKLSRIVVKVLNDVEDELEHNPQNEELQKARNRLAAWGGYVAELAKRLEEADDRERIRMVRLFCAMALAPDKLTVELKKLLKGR
Assay: affinity purification with mass spectrometry; 100 µg purified C-terminal His-tagged Csa5 as bait mixed with 1 mg T. tenax cell extract, cross-linked with 1% formaldehyde 15 min on ice, cobalt resin 30 min 4°C, washed with 40 mM imidazole, eluted at 290 mM imidazole; digest in solution, LC-MS/MS; only the target purified

binding, binds:
B1
B2
B3
